Some of the results follow. Many values rest on one well or one pass, so single values are uncertain.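 Cells were imaged in 1,536-well plates, and nuclei stained with an antibody against cleaved PARP were counted against all DNA-stained nuclei to give the apoptosis fraction. Screening doses were chosen to leave most cells alive, and resting and induced cleaved-PARP levels differ strongly between cell lines.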
Tests used:
Experiment in all cases: cleaved PARP positive nuclei fraction relative to DMSO control; melanoma cells; higher = more apoptosis
Settings in all cases: library dose: low library concentration; 72 h
MZ2-MEL = system: MZ2-MEL
MeWo = system: MeWo
RPMI7951 = system: RPMI7951
RVH-421 = system: RVH-421
SkMel28 = system: SkMel28
SkMel2 = system: SkMel2
SkMel30 = system: SkMel30
SkMel5 = system: SkMel5
UACC257 = system: UACC257
UACC62 = system: UACC62

SMILES	cleaved PARP positive nuclei fraction (MZ2-MEL)	cleaved PARP positive nuclei fraction (MeWo)	cleaved PARP positive nuclei fraction (RPMI7951)	cleaved PARP positive nuclei fraction (RVH-421)	cleaved PARP positive nuclei fraction (SkMel28)	cleaved PARP positive nuclei fraction (SkMel2)	cleaved PARP positive nuclei fraction (SkMel30)	cleaved PARP positive nuclei fraction (SkMel5)	cleaved PARP positive nuclei fraction (UACC257)	cleaved PARP positive nuclei fraction (UACC62)
C[As](C)SC[C@H](NC(=O)CC[C@H](N)C(=O)O)C(=O)NCC(=O)O [Darinaparsin] + Cc1ccc(NC(=O)c2cccc(N(C)C)c2)cc1NC(=O)c1ccc(O)cc1 [ZM336372] (first compound 0.4 µM, partner dose 2 µM)	92%	53.4%	138%	96.6%	126%	61%	99%	205%	251%	225%
Cc1ccc(Nc2nccc(N(C)c3ccc4c(C)n(C)nc4c3)n2)cc1S(N)(=O)=O [Pazopanib] + C/C(O)=C(\C#N)C(=O)Nc1cc(Br)ccc1Br [LFM-A13] (first compound 0.4 µM, partner dose 2 µM)	97.6%	22.5%	141%	203%	170%	61.8%	31.3%	32.6%	202%	144%
Cn1cc(C2=C(c3cn(C4CCN(Cc5ccccn5)CC4)c4ccccc34)C(=O)NC2=O)c2ccccc21 [Enzastaurin] + O=C(CCCCCCC(=O)Nc1ccccc1)NO [vorinostat] (first compound 0.8 µM, partner dose 0.08 µM)	94.9%	38.1%	106%	54.5%	62.1%	195%	207%	6340%	188%	126%
N.N.[Cl][Pt][Cl] [cisplatin] + Cc1cc(SCc2sc(-c3ccc(C(F)(F)F)c(F)c3)nc2C)ccc1OCC(=O)O [GW0742] (first compound 1.6 µM, partner dose 2 µM)	155%	127%	66.8%	131%	105%	58.6%	27.2%	153%	170%	112%
Nc1nc(F)nc2c1ncn2[C@@H]1O[C@H](CO)[C@@H](O)[C@@H]1O [fludarabine] + O=C(Oc1ccc([N+](=O)[O-])cc1)N1CCC(C(O)(c2ccc3c(c2)OCO3)c2ccc3c(c2)OCO3)CC1 [JZL184] (first compound 0.2 µM, partner dose 1 µM)	206%	441%	107%	181%	126%	843%	265%	136%	179%	124%
N#CC[C@H](C1CCCC1)n1cc(-c2ncnc3[nH]ccc23)cn1 [ruxolitinib] + C/C(O)=C(\C#N)C(=O)Nc1cc(Br)ccc1Br [LFM-A13] (first compound 1 µM, partner dose 2 µM)	268%	22.2%	286%	34.4%	139%	190%	30.6%	136%	177%	28.4%
Cn1cc(C2=C(c3cn(C4CCN(Cc5ccccn5)CC4)c4ccccc34)C(=O)NC2=O)c2ccccc21 [Enzastaurin] + CO[C@@H]1[C@H](N(C)C(=O)c2ccccc2)C[C@H]2O[C@]1(C)n1c3ccccc3c3c4c(c5c6ccccc6n2c5c31)C(=O)NC4 [Midostaurin] (first compound 0.8 µM, partner dose 0.08 µM)	104%	141%	72%	68.5%	53.9%	171%	138%	158%	62.4%	96.8%
CC(=O)O[C@@]12CO[C@@H]1C[C@H](O)[C@@]1(C)C(=O)[C@H](O)C3=C(C)[C@@H](OC(=O)[C@H](O)[C@@H](NC(=O)OC(C)(C)C)c4ccccc4)C[C@@](O)([C@@H](OC(=O)c4ccccc4)[C@H]21)C3(C)C [Docetaxel] + C/C(O)=C(\C#N)C(=O)Nc1cc(Br)ccc1Br [LFM-A13] (first compound 0.0001 µM, partner dose 2 µM)	370%	653%	181%	48.6%	720%	857%	278%	101%	1020%	912%
Cn1cc(C2=C(c3cn(C4CCN(Cc5ccccn5)CC4)c4ccccc34)C(=O)NC2=O)c2ccccc21 [Enzastaurin] + OCCn1cc(-c2cnc3nnn(Cc4ccc5ncccc5c4)c3n2)cn1 [PF04217903] (first compound 0.8 µM, partner dose 1 µM)	92.2%	31.4%	286%	466%	115%	231%	57.4%	71.2%	169%	41.8%
CC[C@]1(O)C[C@H]2CN(CCc3c([nH]c4ccccc34)[C@@](C(=O)OC)(c3cc4c(cc3OC)N(C=O)[C@H]3[C@@](O)(C(=O)OC)[C@H](OC(C)=O)[C@]5(CC)C=CCN6CC[C@]43[C@@H]65)C2)C1 [vincristine] + Cc1cc(SCc2sc(-c3ccc(C(F)(F)F)c(F)c3)nc2C)ccc1OCC(=O)O [GW0742] (first compound 0.0001 µM, partner dose 2 µM)	94.5%	80.7%	125%	41.2%	115%	104%	146%	43.5%	93.9%	135%
Cn1cnc2c(F)c(Nc3ccc(Br)cc3Cl)c(C(=O)NOCCO)cc21 [selumetinib] + C/C(O)=C(\C#N)C(=O)Nc1cc(Br)ccc1Br [LFM-A13] (first compound 0.015 µM, partner dose 2 µM)	285%	148%	103%	83.8%	361%	166%	81.8%	217%	211%	206%

No new results follow: entries from further up.
SMILES	cleaved PARP positive nuclei fraction (MZ2-MEL)	cleaved PARP positive nuclei fraction (MeWo)	cleaved PARP positive nuclei fraction (RPMI7951)	cleaved PARP positive nuclei fraction (RVH-421)	cleaved PARP positive nuclei fraction (SkMel28)	cleaved PARP positive nuclei fraction (SkMel2)	cleaved PARP positive nuclei fraction (SkMel30)	cleaved PARP positive nuclei fraction (SkMel5)	cleaved PARP positive nuclei fraction (UACC257)	cleaved PARP positive nuclei fraction (UACC62)
C[As](C)SC[C@H](NC(=O)CC[C@H](N)C(=O)O)C(=O)NCC(=O)O [Darinaparsin] + Cc1ccc(NC(=O)c2cccc(N(C)C)c2)cc1NC(=O)c1ccc(O)cc1 [ZM336372] (first compound 0.4 µM, partner dose 2 µM)	92%	53.4%	138%	96.6%	126%	61%	99%	205%	251%	225%
Cc1ccc(Nc2nccc(N(C)c3ccc4c(C)n(C)nc4c3)n2)cc1S(N)(=O)=O [Pazopanib] + C/C(O)=C(\C#N)C(=O)Nc1cc(Br)ccc1Br [LFM-A13] (first compound 0.4 µM, partner dose 2 µM)	97.6%	22.5%	141%	203%	170%	61.8%	31.3%	32.6%	202%	144%

From the supplement of paper PMC4604168 (melanoma cell lines)
